Columns and labels:
[1] = Deployment of POG in coastal waters, Thames River Estuary (Experimental 5); conditions: 12 days in situ
[2] = format: physicochemical; conditions: calculated at 1, 2, or 6 hrs, artificial seawater 31 ppt, 20° C.
Text: The polymer coated glass samplers (POG) and the organic rapid equilibrating (ORE) samplers, 10 and 20, both consisting of a thin film (on the order of ˜1-2 μm) of EVA, were calibrated by experimental determination of EVA-Water partition coefficients and sampling rates. The ORE is comprised of a 1.4 μm EVA coating on a 5.1×7.6 cm titanium plate, while the POG utilizes a thin-film of EVA on a glass fiber filter.
A closed system experiment was used to calibrate the POG and ORE devices. Sampling rates and equilibration times were determined for fourteen PBDE congeners. EVA-Water partitioning coefficients (KEVA-W) were experimentally determined for 5 BDE congeners. A Log KEVA-W−Log KOW (Octanol-Water partitioning coefficient) plot was constructed and used to define Log KEVA-W partitioning coefficients for the 14 BDE congeners examined. Values ranged from 6.39 to 10.6. The experimental design was successful in parameterizing the desired constants. In sum, both samplers were successfully calibrated.
A dichloromethane rinsed 20 gallon fish tank was employed for the tank deployment experimental. Three POGs and three OREs were suspended from a stainless steel frame proximate the top of the tank.
Once dry, the tank was filled with artificial seawater comprising sodium chloride, sodium bicarbonate, magnesium sulfate, and high purity Milli-Q water. A handheld multiparameter instrument (YSI-556) was used to confirm salinity (31 parts per thousand), dissolved oxygen (0.19 mM), and temperature (20° C.) prior to starting the experiment. The tank was fit with a plexiglass lid sealed with polytetrafluoroethylene (PTFE; i.e., Teflon®) and duct tape.
The tank was spiked with 0.2 mL of the PBDE Predominant Congener Mixture in n-nonane from Cambridge Isotope laboratories and allowed to equilibrate for 48 hours. Samplers were removed from refrigeration and allowed to equilibrate to room temperature. 400 mL of water was taken to establish the initial concentration. Seven sets of three samplers were added to the tank. The tank was secured with a lid, PTFE and duct tape, as described above. Four hundred milliliter aliquots of tank water and one sampler set were removed at the following time intervals: 1 hr, 2 hrs, 6 hrs, 12 hrs, 3 days, 12 days, and 32 days. The tank was open to the air in the fume hood for less than 4 minutes during each sampling period. After removal, each sampler set was wrapped in pre-cleaned aluminum foil and placed frozen in an airtight bag at −20° C. until extraction and analysis. Water-side 400 mL aliquots were frozen at −20° C. until extraction and analysis.
The POGs and OREs were extracted for analysis of PBDE concentration.
Extracts were analyzed for BDE congeners 17, 28, 47, 66, 71, 85, 99, 100, 138, 153, 154, 183, 190, and 209 by gas chromatography-mass spectrometry (GC/MS). Masses 79 (PBDEs) and 414 (Mirex) were used for quantification with Masses 81 (PBDEs), 487, 486 (DecaBDE), and 412 (Mirex) acting as confirmation ions. Extracts were identified and quantified by comparison with known concentrations of prepared standard solutions.
Sampling rates were calculated experimentally using Equation 2. The sampling rates varied between sampler types. The differences in sampling rates were likely due to variations in the thickness and heterogeneity versus homogeneity of the thin film coating on the respective plates. Sampling rates (RS(s)) were calculated at 1, 2, or 6 hrs depending upon the shape of the uptake curve.

[3] = Detection of PBDEs by POGs in bottom waters, Thames River Estuary (Experimental 6); conditions: 14 days in situ

Row | Structure (SMILES) | blank-corrected water concentration ([1]; Station 1, POG) | blank-corrected water concentration ([1]; Station 2, POG) | blank-corrected water concentration ([1]; Station 3, POG) | Rs (sampling rate) ORE [2] | Rs (sampling rate) POG [2] | blank corrected water concentration ([3]; Station 3, POG) | blank corrected water concentration ([3]; Station 1, POG) | blank corrected water concentration ([3]; Station 2, POG)
1 | O=S1OC[C@@H]2[C@H](CO1)[C@@]1(Cl)C(Cl)=C(Cl)[C@]2(Cl)C1(Cl)Cl (stereo partly shown) [A-Endosulfan] | 120 pg/L | 63 pg/L | 64 pg/L | – | – | – | – | –
2 | CCNc1nc(Cl)nc(NC(C)C)n1 [Atrazine] | 47000 pg/L | 74000 pg/L | 72000 pg/L | – | – | – | – | –
3 | Brc1ccc(Oc2ccccc2Br)c(Br)c1 [BDE 17] | 1.2 pg/L | – | 0.23 pg/L | 6.4 Ld^−1 | 3.2 Ld^−1 | 0.60 pg/L | – | –
4 | Brc1ccc(Oc2ccc(Br)cc2Br)cc1 [BDE 28] | 0.56 pg/L | – | 0.56 pg/L | 7.6 Ld^−1 | 4.8 Ld^−1 | – | 0.73 pg/L | 1.57 pg/L
5 | Brc1ccc(Oc2ccc(Br)cc2Br)c(Br)c1 [BDE 47] | 18 pg/L | – | 7.7 pg/L | 4.9 Ld^−1 | 9.9 Ld^−1 | – | – | 1.49 pg/L
6 | Brc1ccc(Oc2ccc(Br)c(Br)c2)c(Br)c1 [BDE 66] | 0.38 pg/L | – | 0.30 pg/L | 5.6 Ld^−1 | 6.9 Ld^−1 | 0.30 pg/L | 0.58 pg/L | 0.67 pg/L
7 | Brc1ccc(Oc2c(Br)cccc2Br)cc1Br [BDE 71] | 0.55 pg/L | – | 0.14 pg/L | 6.1 Ld^−1 | 7.6 Ld^−1 | 0.13 pg/L | – | 0.40 pg/L
8 | Brc1ccc(Oc2ccc(Br)c(Br)c2Br)c(Br)c1 [BDE 85] | 0.76 pg/L | – | 0.49 pg/L | 8.8 Ld^−1 | 8.2 Ld^−1 | 0.35 pg/L | 0.33 pg/L | 2.25 pg/L
9 | Brc1ccc(Oc2cc(Br)c(Br)cc2Br)c(Br)c1 [BDE 99] | 39 pg/L | – | 23 pg/L | 4.0 Ld^−1 | 6.5 Ld^−1 | – | – | 7.86 pg/L
10 | Brc1ccc(Oc2c(Br)cc(Br)cc2Br)c(Br)c1 [BDE 100] | 17 pg/L | – | 9.7 pg/L | 4.2 Ld^−1 | 4.5 Ld^−1 | 1.20 pg/L | 2.62 pg/L | 3.68 pg/L
11 | Brc1cc(Br)c(Oc2ccc(Br)c(Br)c2Br)cc1Br [BDE 138] | – | – | – | 4.1 Ld^−1 | 5.1 Ld^−1 | – | – | –
12 | Brc1cc(Br)c(Oc2cc(Br)c(Br)cc2Br)cc1Br [BDE 153] | 0.40 pg/L | – | 0.39 pg/L | 2.8 Ld^−1 | 6.5 Ld^−1 | 0.37 pg/L | 2.03 pg/L | 0.96 pg/L
13 | Brc1cc(Br)c(Oc2cc(Br)c(Br)cc2Br)c(Br)c1 [BDE 154] | 0.94 pg/L | – | 0.31 pg/L | 2.6 Ld^−1 | 5.7 Ld^−1 | 0.07 pg/L | 0.14 pg/L | 1.74 pg/L
14 | Brc1cc(Br)c(Oc2c(Br)cc(Br)c(Br)c2Br)cc1Br [BDE 183] | – | – | – | 8.6 Ld^−1 | 7.5 Ld^−1 | 0.45 pg/L | 1.59 pg/L | 1.35 pg/L
15 | Brc1ccc(Oc2c(Br)c(Br)c(Br)c(Br)c2Br)cc1Br [BDE 190] | – | – | – | 10.4 Ld^−1 | 11.4 Ld^−1 | – | – | –
16 | Brc1c(Br)c(Br)c(Oc2c(Br)c(Br)c(Br)c(Br)c2Br)c(Br)c1Br [BDE 209] | – | – | – | 7.5 Ld^−1 | 6.7 Ld^−1 | 1.45 pg/L | 28.16 pg/L | 30.89 pg/L
17 | N#Cc1c(Cl)c(Cl)c(Cl)c(C#N)c1Cl [Chlorothalonil] | 6800 pg/L | 6400 pg/L | 6300 pg/L | – | – | – | – | –
18 | CCC(CC)Nc1c([N+](=O)[O-])cc(C)c(C)c1[N+](=O)[O-] [Pendimethalin] | 38 pg/L | 33 pg/L | 34 pg/L | – | – | – | – | –
19 | CCCN(CCC)c1c([N+](=O)[O-])cc(C(F)(F)F)cc1[N+](=O)[O-] [Trifluralin] | 1.4 pg/L | 0.5 pg/L | 0.8 pg/L | – | – | – | – | –
